Our source for the binding values is paper doi:10.1101/2024.03.04.583402.

The assay deals with T1, retinoid X receptor α (UniProt P28700).
T1 sequence: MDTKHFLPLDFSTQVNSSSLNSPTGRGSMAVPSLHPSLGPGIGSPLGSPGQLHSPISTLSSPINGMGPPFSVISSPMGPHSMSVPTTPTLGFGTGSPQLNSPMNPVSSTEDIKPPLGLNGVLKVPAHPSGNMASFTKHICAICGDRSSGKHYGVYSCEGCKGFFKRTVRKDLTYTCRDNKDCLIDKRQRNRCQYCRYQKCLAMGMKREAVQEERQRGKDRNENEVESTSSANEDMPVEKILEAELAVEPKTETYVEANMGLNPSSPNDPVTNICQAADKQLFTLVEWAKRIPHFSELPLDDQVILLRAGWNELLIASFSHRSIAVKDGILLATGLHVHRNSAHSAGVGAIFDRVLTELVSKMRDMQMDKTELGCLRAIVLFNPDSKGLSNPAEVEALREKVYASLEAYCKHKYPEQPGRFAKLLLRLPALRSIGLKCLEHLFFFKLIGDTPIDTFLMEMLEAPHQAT
In words: co-IP.

Results are given in words; binding and its absence hold for the method and conditions named. In cells and extracts the contact can be indirect. Binding can be weak; no strength is given.

As to Zinc finger protein 407, the binding result is reported as “binds”.
